Source: publication PMC8384837
Where a chain is given by its changes, count along the chain named. Some of the results follow. For part of these data: At the low end of the ranking the order means little. For part of these data: The exact form of the protein is not confirmed.

How the values were obtained:
Settings in all cases: yeast three-hybrid, YBZ-1, SC-Leu-His + 0.5 mM 3-AT, 4 days
[1] = biological target: T1, PUM1 PUF domain R1-QFR R2-VFQ R7-NPG S863Q + R864F + Q867R + N899V + Y900F + S1079N + N1080P + E1083G (UniProt Q14671)
T1 sequence: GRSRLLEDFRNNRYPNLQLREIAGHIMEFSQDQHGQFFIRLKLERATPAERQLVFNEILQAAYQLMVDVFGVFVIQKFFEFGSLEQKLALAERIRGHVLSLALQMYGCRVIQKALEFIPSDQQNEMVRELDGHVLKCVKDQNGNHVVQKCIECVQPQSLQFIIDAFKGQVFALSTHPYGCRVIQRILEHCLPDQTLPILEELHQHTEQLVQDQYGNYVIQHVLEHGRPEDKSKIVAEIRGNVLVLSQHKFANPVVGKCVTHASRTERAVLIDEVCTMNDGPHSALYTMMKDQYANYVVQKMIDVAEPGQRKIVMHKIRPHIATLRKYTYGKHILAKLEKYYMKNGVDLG

[2] = biological target: T2, PUM1 PUF domain R2-VFQ R3-THE R4-TFR N899V + Y900F + C935T + R936H + Q939E + N971T + H972F + Q975R (UniProt Q14671)
T2 sequence: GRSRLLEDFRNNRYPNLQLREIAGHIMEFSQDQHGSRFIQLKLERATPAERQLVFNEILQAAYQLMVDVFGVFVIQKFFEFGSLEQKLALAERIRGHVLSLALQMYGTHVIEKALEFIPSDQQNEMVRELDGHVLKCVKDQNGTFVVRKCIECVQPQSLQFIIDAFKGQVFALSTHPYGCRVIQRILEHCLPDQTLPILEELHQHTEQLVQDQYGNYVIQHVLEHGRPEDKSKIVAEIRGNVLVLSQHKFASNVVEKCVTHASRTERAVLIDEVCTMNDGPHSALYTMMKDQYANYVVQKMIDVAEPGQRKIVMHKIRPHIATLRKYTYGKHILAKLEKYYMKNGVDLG

[3] = biological target: T3, PUM1 PUF domain R3-THE R4-TFR C935T + R936H + Q939E + N971T + H972F + Q975R (UniProt Q14671)
T3 sequence: T2 sequence with V72N, F73Y

[4] = biological target: T4, PUM1 PUF domain R3-THE R4-TFR R7-NPG C935T + R936H + Q939E + N971T + H972F + Q975R + S1079N + N1080P + E1083G (Homo sapiens) (UniProt Q14671)
T4 sequence: T2 sequence with V72N, F73Y, S252N, N253P, E256G

[5] = biological target: T5, PUM1 PUF domain R3-THE R4-TFR R7-NPG C935T + R936H + Q939E + N971T + H972F + Q975R + S1079N + N1080P + E1083G (UniProt Q14671)
T5 sequence: T2 sequence with V72N, F73Y, S252N, N253P, E256G

[6] = biological target: T6, PUM1 PUF domain R5-PHQ R6-SWD C1007P + R1008H + N1043S + Y1044W + Q1047D (UniProt Q14671)
T6 sequence: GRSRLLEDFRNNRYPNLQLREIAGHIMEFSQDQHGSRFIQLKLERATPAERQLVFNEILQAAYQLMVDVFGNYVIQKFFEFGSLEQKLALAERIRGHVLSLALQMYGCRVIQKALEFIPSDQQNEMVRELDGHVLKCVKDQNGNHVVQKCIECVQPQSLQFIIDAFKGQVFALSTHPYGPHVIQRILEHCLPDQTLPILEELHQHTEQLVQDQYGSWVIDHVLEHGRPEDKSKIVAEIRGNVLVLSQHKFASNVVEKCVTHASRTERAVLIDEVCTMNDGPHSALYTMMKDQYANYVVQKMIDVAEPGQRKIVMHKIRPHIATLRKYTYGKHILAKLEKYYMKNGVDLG

[7] = biological target: T7, PUM1 PUF domain R6-SWD R7-NPG N1043S + Y1044W + Q1047D + S1079N + N1080P + E1083G (Homo sapiens) (UniProt Q14671)
T7 sequence: T6 sequence with P180C, H181R, S252N, N253P, E256G

[8] = biological target: T8, PUM1 PUF domain R8-RWR N1122R + Y1123W + Q1126R (UniProt Q14671)
T8 sequence: T6 sequence with P180C, H181R, S216N, W217Y, D220Q, N295R, Y296W, Q299R

[9] = biological target: T9, PUM1 PUF domain R6-SWD R7-NPG N1043S + Y1044W + Q1047D + S1079N + N1080P + E1083G (UniProt Q14671)
T9 sequence: T6 sequence with P180C, H181R, S252N, N253P, E256G

Sequence | binding signal (log2 enrichment (interaction score)) [1] | binding signal (log2 enrichment (interaction score)) [2] | binding signal (log2 enrichment (interaction score)) [3] | binding signal (log2 enrichment (interaction score)) [4] | binding signal (log2 enrichment (interaction score)) [5] | binding signal (log2 enrichment (interaction score)) [6] | binding signal (log2 enrichment (interaction score)) [7] | binding signal (log2 enrichment (interaction score)) [8] | binding signal (log2 enrichment (interaction score)) [9]
GGCUAGAACUAGUGGAUCCCCCGGCGCCCGGCGGCUCGAGCCCGGGUAAGUCCAAGUAGUCUGCAUGCCGCCGGGCGCCAUGCCUGCAGGUCGACUCUAGAAAACAUG | < -6.03 | -6.53 | -7.17 | – | – | – | – | – | –
GGCUAGAACUAGUGGAUCCCCCGGCGCCCGGCGGCUCGAGCCCGGGUAAGUUUCCGUAGUCUGCAUGCCGCCGGGCGCCAUGCCUGCAGGUCGACUCUAGAAAACAUG | -7.06 | -6.42 | -6.74 | -1.5 | – | – | – | – | –
GGCUAGAACUAGUGGAUCCCCCGGCGCCCGGCGGCUCGAGCCCGGGUAAGUGGAGAAAGUCUGCAUGCCGCCGGGCGCCAUGCCUGCAGGUCGACUCUAGAAAACAUG | -5.6 | -5.3 | -6.59 | – | -2.12 | -9.13 | – | – | –
GGCUAGAACUAGUGGAUCCCCCGGCGCCCGGCGGCUCGAGCCCGGGUAAGUAUACGAAGUCUGCAUGCCGCCGGGCGCCAUGCCUGCAGGUCGACUCUAGAAAACAUG | < -6.18 | -5 | -6.64 | – | -2.26 | – | – | – | –
GGCUAGAACUAGUGGAUCCCCCGGCGCCCGGCGGCUCGAGCCCGGGUAAGUUUAAUUAGUCUGCAUGCCGCCGGGCGCCAUGCCUGCAGGUCGACUCUAGAAAACAUG | -5.94 | -5.16 | -6.78 | – | -2.54 | -8.63 | -1.04 | – | –
GGCUAGAACUAGUGGAUCCCCCGGCGCCCGGCGGCUCGAGCCCGGGUAAGGUUAAGAAGUCUGCAUGCCGCCGGGCGCCAUGCCUGCAGGUCGACUCUAGAAAACAUG | -7.43 | -5.09 | < -8.15 | – | < -2.75 | – | – | – | –
GGCUAGAACUAGUGGAUCCCCCGGCGCCCGGCGGCUCGAGCCCGGGUAAGUUUGCGAAGUCUGCAUGCCGCCGGGCGCCAUGCCUGCAGGUCGACUCUAGAAAACAUG | -4.45 | < -6.01 | -7.39 | – | -2.09 | – | – | – | –
GGCUAGAACUAGUGGAUCCCCCGGCGCCCGGCGGCUCGAGCCCGGGUAAGUGCACGUCGUCUGCAUGCCGCCGGGCGCCAUGCCUGCAGGUCGACUCUAGAAAACAUG | < -6.25 | -5.41 | -7.35 | – | -2.58 | -8.04 | -1.6 | – | –
GGCUAGAACUAGUGGAUCCCCCGGCGCCCGGCGGCUCGAGCCCGGGUAAGUGGACAUAGUCUGCAUGCCGCCGGGCGCCAUGCCUGCAGGUCGACUCUAGAAAACAUG | -4.47 | -5.35 | -7.4 | -1.24 | – | -7.44 | – | – | –
GGCUAGAACUAGUGGAUCCCCCGGCGCCCGGCGGCUCGAGCCCGGGUAAGUUUAGGUAGUCUGCAUGCCGCCGGGCGCCAUGCCUGCAGGUCGACUCUAGAAAACAUG | -6.37 | -5.78 | -6.64 | -1.89 | – | -8.66 | -1.78 | – | –
GGCUAGAACUAGUGGAUCCCCCGGCGCCCGGCGGCUCGAGCCCGGGUAAGUGGAAAACGUCUGCAUGCCGCCGGGCGCCAUGCCUGCAGGUCGACUCUAGAAAACAUG | -4.91 | -5.42 | -7.1 | – | -2.1 | -3.01 | -0.88 | – | –
GGCUAGAACUAGUGGAUCCCCCGGCGCCCGGCGGCUCGAGCCCGGGUAAGAGUAAAUAGUCUGCAUGCCGCCGGGCGCCAUGCCUGCAGGUCGACUCUAGAAAACAUG | -6.47 | < -5.68 | -6.01 | -0.31 | – | -8.21 | -1.29 | < -5.7 | –
GGCUAGAACUAGUGGAUCCCCCGGCGCCCGGCGGCUCGAGCCCGGGUAAGUUUAAAAAGUCUGCAUGCCGCCGGGCGCCAUGCCUGCAGGUCGACUCUAGAAAACAUG | -3.5 | -6.15 | -6.62 | – | -2.16 | -8.99 | – | – | -2.05
GGCUAGAACUAGUGGAUCCCCCGGCGCCCGGCGGCUCGAGCCCGGGUAAGUGUAAAACGUCUGCAUGCCGCCGGGCGCCAUGCCUGCAGGUCGACUCUAGAAAACAUG | -3.02 | -5.47 | -6.33 | -1.22 | – | -6.69 | -0.7 | – | –
